Assay results: publication PMC4468853
No constants are given. Whether binding was seen depends on the method and setting. Binding seen in cells or lysates may run through a third protein. Some binding calls cover weakened binding; strength is not graded here. Where a sequence is shown, tags or fusion partners need not be part of it.

The chains behind the UniProt entries cited, without tags or fusion partners.
UniProt Q8WW35: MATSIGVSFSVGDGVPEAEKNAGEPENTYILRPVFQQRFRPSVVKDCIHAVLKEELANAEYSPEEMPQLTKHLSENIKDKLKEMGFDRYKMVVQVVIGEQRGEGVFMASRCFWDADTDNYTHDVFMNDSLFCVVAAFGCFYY

Target: Flag-tagged TCTEX1D2 (human) (UniProt Q8WW35)
Assay: co-IP; overexpression of Flag-tagged TCTEX1D2 and GFP-tagged WDR60 in HEK293T cells

binding: binds
B1: GFP-tagged WDR60 (protein, UniProt Q8C761 1-999)
chain: MEPGKRRTKDDTWKADDLRKHLKVQSGSPKEEKKLREKKAHKDSESAAPEYREHKSRDPDREARHKEKTAERDLYTSTEHPRGERDRERHKERRKDAKDREKDKLKERHRDQEAEKAHSRGKDREREKDRRARKEEIRQSMAYHDLLSRDMRGRQMAEKVEKKASKIRTEERERRDEDSERIDEDRERRYRERKLQYGDSKEHPLSYWLYKEDGEKKHRKAKDADREKRLREKSSMREKRERHAREKGSSLSDREVEDRHREKRHKEGLHYDDERRRSHADKKERSSKEEHKKRELKELEKEDNDLEATGPDEYLPNLEDDFVDYEDDFEVCDGDDDSNNEHEAREKAEELPLAQKREIQEIQKAISAENERVGELSLKMFQKQGWTEYTKEPWTDANDSPSRTPVCGIFVDFATASHRQKSRSQALKQKTRSSKLLRLIDLDFSFTFSLLDLPPVNEYDMYIRNFGKKNTKQAYVQYNEDNVERDIQTEDIETREVWTQHPGEGTAVSGGSEEKDFSDVTVVPKIDTPRLANFLRAACQVVAVLLEEDRLAAGPSWIPRAQDKALNISDSSSQLNTSLPFLQSRKVSCLHASRVQRQTVVSVHDLPEKAFAPSLDSRHLLCVWDIWQPSGPQKVLICESKVTCCCFSPLKAFLLFAGTVHGSVVVWDLREDSRIHHYVRLSNCFWAFRTPTFSTDGILTSVNHRSPLQAIEPVATSAYKKQSFVLSPFSTQEEMAGLSFHIASLDETGVLNVWVVVELPKADISGSMSDLGLIPGGRIKLVHSTVIQLGNSLSHKDSELWGSTQTLSVKFLPSDPNHFVVGTDMGLISHSTRQDWRVSPRVFKPEQHGVRPIKVNVIDFSPFEETVFLAGCSDGSIRLHQLTSERPIMQWDNSTSGHAVTSLQWSPTRPAVFLVQDDASRIYVWDLLENDLGPVAQQPISPDKLVAMTIVGEPEKTSGSFVALVLARTSGTVDVQNLKRRWTTPAVDEHSQLRLLLQK
